The text below walks through data of US11896675B2 (AbTis Co., Ltd., priority 2019, dated 2024).

A short description of the series: peptide synthesis. The following applies: whole synthesis, analytical HPLC; molecular weight confirmed by LC/MS.

As for “H-PEG8-Asp-Cys*-Ala-Trp-His-Lys-Gly-Glu-Leu-Val-Trp-Cys*-Thr-NH2”, the “final HPLC purity” value was 90% or more. The result for “H-PEG8-Asp-Cys*-Ala-Trp-His-Orn-Gly-Glu-Leu-Val-Trp-Cys*-Thr-NH2” reads 90% or more.
